Values from PubChem BioAssay AID504808 (Drosophila RNAi Screening Center, 2011)
The deposit covers about 21,000 reagents; this is an unselected part of those with a known target gene and a result. Over the whole deposit, 18 (0.084%) got an active call. 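Raw counts without plate normalisation, one of two replicates; the ratio scores behind the calls were not deposited.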 No sequences are given here. The record does not give: the amount of reagent, the time to read-out.

- Purpose: 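Genes whose loss lifts activity of an E2F-responsive reporter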 (primary screen)
- Cells: Drosophila S2 cells
- Reagent: long dsRNA against Drosophila genes
- Measurement: 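Firefly luciferase driven by E2F sites, normalised to Renilla luciferase on the same minimal promoter, measured by plate reader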
- Direction: E2F firefly: higher = more E2F reporter activity; Renilla normaliser: higher = more normaliser reporter signal
- Active means: 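a knock-down counted as active when the firefly/Renilla E2F signal rose above 50%, a threshold chosen arbitrarily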

no.	Gene	amplicon	E2F firefly, rep 1	Renilla normaliser, rep 1	outcome
1	CG6974	DRSC16160	1.09e5	6221	inactive
2	CG15395	DRSC00409	1.55e5	5901	inactive
3	CG17362	DRSC10267	1.43e5	5929	inactive
4	Met (Methoprene-tolerant)	DRSC20284	1.50e5	6896	inactive
5	CG12746	DRSC12218	65245	3539	inactive
6	Pis (Phosphatidylinositol synthase)	DRSC20178	1.49e5	5958	inactive
7	CR42545 (pseudo)	DRSC03709	98118	4218	inactive
8	CG15459	DRSC20530	1.38e5	6260	inactive
9	Polr3C (RNA polymerase III subunit C)	DRSC14490	71137	3887	inactive
10	CG32240	DRSC08093	1.29e5	4000	inactive
11	CG18823	DRSC18168	54255	6172	inactive
12	UQCR-14L (Ubiquinol-cytochrome c reductase 14 kDa subunit-like)	DRSC15288	1.20e5	5972	inactive
13	dpr2 (defective proboscis extension response 2)	DRSC02370	1.52e5	4742	inactive
14	dpr2 (defective proboscis extension response 2)	DRSC02371	1.46e5	5297	inactive
15	Lectin-galC1 (Galactose-specific C-type lectin)	DRSC03362	1.01e5	4649	inactive
16	Nipsnap	DRSC20169	7718	856	inactive
17	PolrMT (RNA polymerase mitochondrial)	DRSC00660	86733	3805	inactive
18	prt (portabella)	DRSC16894	1.07e5	5336	inactive
19	Lnk	DRSC16729	2215	956	inactive
20	CG3635	DRSC03729	1.02e5	4779	inactive
21	qless	DRSC15103	1.23e5	5560	inactive
22	qless	DRSC15507	1.17e5	6244	inactive
23	CG18178	DRSC10302	71313	3185	inactive
24	Alp11 (Alkaline phosphatase 11)	DRSC20080	1.58e5	6294	inactive
25	CG5498	DRSC11608	69463	3657	inactive
26	S-Lap2 (Sperm-Leucylaminopeptidase 2)	DRSC10628	1.05e5	3770	inactive
27	spel1 (spellchecker1)	DRSC03617	1.05e5	4195	inactive
28	Fs (Follistatin)	DRSC06258	73811	3710	inactive
29	Fs (Follistatin)	DRSC06259	86693	3968	inactive
30	CG6790	DRSC16117	77641	3709	inactive
31	Agxt (Alanine-glyoxylate aminotransferase)	DRSC18718	7878	684	inactive
32	mahe (maheshvara)	DRSC17755	8253	768	inactive
33	CG42561	DRSC05676	1.69e5	6105	inactive

Continued (2 carried over from the part before).
no.	Gene	amplicon	E2F firefly, rep 1	Renilla normaliser, rep 1	outcome
32	mahe (maheshvara)	DRSC17755	8253	768	inactive
33	CG42561	DRSC05676	1.69e5	6105	inactive
34	Jhe (Juvenile hormone esterase)	DRSC07174	1.36e5	4314	inactive
35	CG6766	DRSC02991	1.02e5	4293	inactive
36	CG18266	DRSC02659	93856	3109	inactive
37	CG8765	DRSC11041	69422	9906	inactive
38	CG6421	DRSC07420	1.35e5	4700	inactive
39	egl (egalitarian)	DRSC04682	86325	3904	inactive
40	mGluR (metabotropic Glutamate Receptor)	DRSC17215	1.07e5	6091	inactive
41	Uba4 (Ubiquitin-like activating enzyme 4)	DRSC02194	1.44e5	4931	inactive
42	CG14260	DRSC14755	1.05e5	6293	inactive
43	Lsp1alpha (Larval serum protein 1 alpha)	DRSC20258	32358	2554	inactive
44	CG12831	DRSC06179	1.39e5	4364	inactive
45	CG12948	DRSC14576	1.41e5	6678	inactive
46	CG30195	DRSC04155	1.07e5	4668	inactive
47	zfh2 (Zn finger homeodomain 2)	DRSC17178	2003	936	inactive
48	CG6055	DRSC02923	1.53e5	5577	inactive
49	Ndg (Nidogen)	DRSC06223	3190	284	inactive
50	Lcp65Ae	DRSC11212	92785	3837	inactive
51	CR15280 (pseudo)	DRSC01953	1.07e5	4552	inactive
52	wge (winged eye)	DRSC15246	61145	3510	inactive
53	wge (winged eye)	DRSC15672	1.11e5	5931	inactive
54	Septin2 (Septin 2)	DRSC16855	72370	5017	inactive
55	CG42735 (retired record)	DRSC00921	1.33e5	5758	inactive
56	CG13516	DRSC04159	1.09e5	4554	inactive
57	CG42676	DRSC08227	71339	3400	inactive
58	CG42676	DRSC08392	1.02e5	4604	inactive
59	CG1074	DRSC12143	91651	3673	inactive
60	blanks	DRSC09757	1.02e5	4425	inactive
61	HSPBAP1 (HSPB1 associated protein 1)	DRSC14567	1.29e5	5887	inactive
62	Obp18a (Odorant-binding protein 18a)	DRSC19736	1.17e5	6265	inactive
63	CG17734	DRSC15256	1.43e5	6562	inactive
64	Peritrophin-15b	DRSC02266	1.47e5	5514	inactive
65	firl (firelighter)	DRSC02428	1.00e5	4111	inactive
66	Gpo3 (Glycerophosphate oxidase 3)	DRSC01978	1.02e5	4170	inactive
67	CG17298	DRSC15221	1.55e5	8045	inactive
68	Phk-3 (Pherokine 3)	DRSC04547	1.13e5	4493	inactive
69	pll (pelle)	DRSC17026	1783	1076	inactive
70	Ugt35B1 (UDP-glycosyltransferase family 35 member B1)	DRSC16893	70341	3651	inactive
71	CCT7 (Chaperonin containing TCP1 subunit 7)	DRSC16410	1.25e5	7747	inactive
72	Vrp1 (Verprolin 1)	DRSC04148	84847	3586	inactive
73	Cyt-c1L (Cytochrome c1-like)	DRSC14860	1.25e5	5869	inactive
74	FipoQ (F-box involved in polyQ pathogenesis)	DRSC15413	1857	1060	inactive
75	Pop5 (POP5 ribonuclease P/MRP subunit)	DRSC10074	1.54e5	8248	inactive
76	msl-3 (male-specific lethal 3)	DRSC11371	90580	3484	inactive
77	Aven (Apoptosis and caspase activation inhibitor)	DRSC19693	1.35e5	6442	inactive
78	lectin-33A	DRSC02529	1.43e5	5331	inactive
79	CG9497	DRSC03234	98040	3502	inactive
80	CG3597	DRSC00617	1.66e5	6367	inactive
81	twy (twitchy)	DRSC10562	1.27e5	7106	inactive
82	Pak (p21-activated kinase)	DRSC12602	64027	3934	inactive
83	CG13138	DRSC02235	1.47e5	5029	inactive
84	CG13437	DRSC06397	95187	3805	inactive
